The values below come from patent publication US9211294B2, “Phenothiazine compounds for treating mild cognitive impairment” (WisTa Laboratories Ltd., priority 2007, dated 2015).

For series [1], the system named is scopolamine-treated NMRI mice. The series can be described thus: Morris water maze spatial reference memory task, reversal of scopolamine-induced cognitive deficits. The format is in vivo. The procedure: Female, NMRI mice aged 3-4 months were from Harlan, UK.
Mice were group housed (7-9 per cage) and maintained with light from 7 am-7 pm and experiments carried out in the light phase. […] They were separated into 6 groups to receive drug administrations as follows:
The injection volume for drugs was 0.2 ml per 30 g animal weight and they were injected intraperitoneally. The doses were as indicated above.
The water maze consisted of a water-filled pool (1.5 m diameter; 20±2° C.) in which a platform submerged 1 cm below water surface was the only means of escape. Mice were released from 4 cardinal sites (South, West, North and East) facing the wall of the pool in random fashion and thus had to acquire spatial knowledge of the exact platform location by spatial mapping procedures using distal cues.
Each animal was given 6 trials/day and was allowed to swim for a maximum time of 60 seconds and stay 30 seconds on the platform. […] An inter-trial interval of 10-20 minutes was given. The animals were trained for 4 consecutive days and received probe trials (free swim for 60 seconds without platform in the pool) approximately 1.5 and 24 hours post-training to test short and long-term memory, respectively. The behaviour of animals was recorded via an overhead camera and data transmitted to the PC for online storage and analysis (EthoVision basic version 3.0.8. Noldus Information Technology, Netherlands).
Probe trial data were analysed by one-way ANOVA and the appropriate post-hoc tests (Bonferroni's multiple comparison test or Newman Keuls) were carried out to determine the source of a significant main effect or interaction. Analyses were performed two-tailed and the null hypothesis was […] at probability levels of 5% (p<0.05). Only terms for reliable differences are mentioned in the text for simplicity.

The conditions of series [2]: following i.p. administration (Kim et al., 2006; Janas et al., 2005); cited from earlier work.
Where [3] appears, read: scopolamine (0.5) then vehicle, mg/kg i.p., hydrobromide.

Structures can show the parent of a compound that is named as a salt.

For the molecule `CN1[C@@H]2C[C@@H](OC(=O)[C@H](CO)c3ccccc3)C[C@H]1[C@@H]1O[C@@H]12` [scopolamine, scopolamine hydrobromide], the “thigmotaxis during memory phase” value in series [1] (scopolamine 0.5 mg/kg then saline, relative to saline-treated controls (not significant)) is “increased thigmotaxis”. Also, the “proportion of time spent in target quadrant (probe trials)” value in series [1] (scopolamine 0.5 mg/kg then saline, versus 25% chance) was “no better than chance”. Further, in series [1] (setting [3]), the Learning result is “did not learn the task and learning deficit and ↓”; the Thigmotaxis result was “differed from controls and ↓”. Also, the S-T memory entry in series [1] (scopolamine (0.5) then vehicle, mg/kg i.p., probe 1.5 h, hydrobromide) is “memory deficit and ↓”. In addition, the Tmax in series [2] is 20 to 40 min.

What is called Tmax is the time at which the peak concentration occurs.
